{"source": "PubChem BioAssay AID1224830 (NIAID, 2016)", "purpose": "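Host factors that control LPS-induced TNF expression in human macrophages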 (primary screen)", "cell system": "human THP-1 monocytic leukaemia cells, TNF dual-luciferase reporter clone, PMA-differentiated to macrophage-like cells", "knock-down reagent": "siRNA pool against human genes, 50 nM", "duration": "LPS for 4 h, given about 3 days after siRNA transfection", "challenge": "bacterial LPS (TLR4 ligand), 10 ng/ml", "detection": "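TNF firefly reporter luminescence divided by renilla, normalised to the plate median, then turned into a robust z-score for each replicate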", "scale": "TNF reporter robust z-score: higher = stronger TNF reporter response to LPS", "call rule": "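Each well counts as active if its z-score is over 2.8 or under -1.5; controls are left without a call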", "note": "The whole screen tested about 18,000 reagents; shown is an unselected part. Of all reagents, about 2,900 (16%) are marked active. 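Calls are made per well; low scores hint the gene aids the LPS response, high scores that it dampens it.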 Repeated entries: four replicate wells of each siRNA pool."}
{"Target gene": "ZNF616 (zinc finger protein 616)", "TNF reporter robust z-score": 0.81, "Call": "inactive"}
{"Target gene": "ZNF616 (zinc finger protein 616)", "TNF reporter robust z-score": 0.66, "Call": "inactive"}
{"Target gene": "ZNF616 (zinc finger protein 616)", "TNF reporter robust z-score": -0.14, "Call": "inactive"}
{"Target gene": "ZNF616 (zinc finger protein 616)", "TNF reporter robust z-score": 1.13, "Call": "inactive"}
{"Target gene": "PACRGL (parkin coregulated like)", "TNF reporter robust z-score": -1.03, "Call": "inactive"}
{"Target gene": "PACRGL (parkin coregulated like)", "TNF reporter robust z-score": -1.45, "Call": "inactive"}
{"Target gene": "PACRGL (parkin coregulated like)", "TNF reporter robust z-score": -0.94, "Call": "inactive"}
{"Target gene": "PACRGL (parkin coregulated like)", "TNF reporter robust z-score": -0.15, "Call": "inactive"}
{"Target gene": "H2BC12 (H2B clustered histone 12)", "TNF reporter robust z-score": -0.6, "Call": "inactive"}
{"Target gene": "H2BC12 (H2B clustered histone 12)", "TNF reporter robust z-score": -0.9, "Call": "inactive"}
{"Target gene": "H2BC12 (H2B clustered histone 12)", "TNF reporter robust z-score": -0.73, "Call": "inactive"}
{"Target gene": "H2BC12 (H2B clustered histone 12)", "TNF reporter robust z-score": 1.08, "Call": "inactive"}
{"Target gene": "YY2 (YY2 transcription factor)", "TNF reporter robust z-score": 0.91, "Call": "inactive"}
{"Target gene": "YY2 (YY2 transcription factor)", "TNF reporter robust z-score": 0.68, "Call": "inactive"}
{"Target gene": "YY2 (YY2 transcription factor)", "TNF reporter robust z-score": 0.47, "Call": "inactive"}
{"Target gene": "YY2 (YY2 transcription factor)", "TNF reporter robust z-score": 1.62, "Call": "inactive"}
{"Target gene": "SLC19A3", "TNF reporter robust z-score": 2.17, "Call": "inactive"}
{"Target gene": "SLC19A3", "TNF reporter robust z-score": 2.23, "Call": "inactive"}
{"Target gene": "SLC19A3", "TNF reporter robust z-score": 1.65, "Call": "inactive"}
{"Target gene": "SLC19A3", "TNF reporter robust z-score": 2.36, "Call": "inactive"}
{"Target gene": "OR7E24 (olfactory receptor family 7 subfamily E member 24)", "TNF reporter robust z-score": 1.4, "Call": "inactive"}
{"Target gene": "OR7E24 (olfactory receptor family 7 subfamily E member 24)", "TNF reporter robust z-score": 1.39, "Call": "inactive"}
{"Target gene": "OR7E24 (olfactory receptor family 7 subfamily E member 24)", "TNF reporter robust z-score": 2.35, "Call": "inactive"}
{"Target gene": "OR7E24 (olfactory receptor family 7 subfamily E member 24)", "TNF reporter robust z-score": 2.19, "Call": "inactive"}
{"Target gene": "TACC2 (transforming acidic coiled-coil containing protein 2)", "TNF reporter robust z-score": -1.11, "Call": "inactive"}
{"Target gene": "TACC2 (transforming acidic coiled-coil containing protein 2)", "TNF reporter robust z-score": -0.67, "Call": "inactive"}
{"Target gene": "TACC2 (transforming acidic coiled-coil containing protein 2)", "TNF reporter robust z-score": -0.88, "Call": "inactive"}
{"Target gene": "TACC2 (transforming acidic coiled-coil containing protein 2)", "TNF reporter robust z-score": -0.81, "Call": "inactive"}
{"Target gene": "CEBPE (CCAAT enhancer binding protein epsilon)", "TNF reporter robust z-score": -0.72, "Call": "inactive"}
{"Target gene": "CEBPE (CCAAT enhancer binding protein epsilon)", "TNF reporter robust z-score": -0.41, "Call": "inactive"}
{"Target gene": "CEBPE (CCAAT enhancer binding protein epsilon)", "TNF reporter robust z-score": -0.34, "Call": "inactive"}
{"Target gene": "CEBPE (CCAAT enhancer binding protein epsilon)", "TNF reporter robust z-score": -0.33, "Call": "inactive"}
{"Target gene": "UBE2G1 (ubiquitin conjugating enzyme E2 G1)", "TNF reporter robust z-score": -0.34, "Call": "inactive"}
{"Target gene": "UBE2G1 (ubiquitin conjugating enzyme E2 G1)", "TNF reporter robust z-score": 7.29, "Call": "active"}
{"Target gene": "UBE2G1 (ubiquitin conjugating enzyme E2 G1)", "TNF reporter robust z-score": 1.25, "Call": "inactive"}
{"Target gene": "UBE2G1 (ubiquitin conjugating enzyme E2 G1)", "TNF reporter robust z-score": -0.11, "Call": "inactive"}
{"Target gene": "HNF4G (hepatocyte nuclear factor 4 gamma)", "Call": "inactive"}
{"Target gene": "HNF4G (hepatocyte nuclear factor 4 gamma)", "TNF reporter robust z-score": 0.83, "Call": "inactive"}
{"Target gene": "HNF4G (hepatocyte nuclear factor 4 gamma)", "TNF reporter robust z-score": 1.47, "Call": "inactive"}
{"Target gene": "HNF4G (hepatocyte nuclear factor 4 gamma)", "TNF reporter robust z-score": 1.51, "Call": "inactive"}
{"Target gene": "HNF4G (hepatocyte nuclear factor 4 gamma)", "TNF reporter robust z-score": 3.88, "Call": "active"}
{"Target gene": "DSC1 (desmocollin 1)", "TNF reporter robust z-score": 0.27, "Call": "inactive"}
{"Target gene": "DSC1 (desmocollin 1)", "TNF reporter robust z-score": 0.48, "Call": "inactive"}
{"Target gene": "DSC1 (desmocollin 1)", "TNF reporter robust z-score": 0.06, "Call": "inactive"}
{"Target gene": "DSC1 (desmocollin 1)", "TNF reporter robust z-score": 0.03, "Call": "inactive"}
{"Target gene": "TAGLN (transgelin)", "TNF reporter robust z-score": 0.79, "Call": "inactive"}
{"Target gene": "TAGLN (transgelin)", "TNF reporter robust z-score": 1.12, "Call": "inactive"}
{"Target gene": "TAGLN (transgelin)", "TNF reporter robust z-score": -0.12, "Call": "inactive"}
{"Target gene": "TAGLN (transgelin)", "TNF reporter robust z-score": -0.28, "Call": "inactive"}
